From patent US9498512B2, “Powerful MHC-class II peptides derived from survivin” (IMMATICS BIOTECHNOLOGIES GMBH, priority 2008, dated 2016)
Not every detail of the peptide structures is certain; ends, links or a residue may be inferred. Ends that are not written are not given here.

How the values were obtained:
[1] = system: MHC II; experiment: MHC II-related immuno-response of BIR-002a
[2] = system: anti-survivin T-cell response; experiment: Clinical study: T-cell response to survivin peptide (IFN-g ELISPOT, +/-ICS); assay type: in vivo, human
[3] = system: BIR-002 specific T-cells from vaccinated patients; experiment: Intracellular cytokine staining of BIR-002-specific CD4+ T cells from vaccinated patients (FIGS. 12-14); assay type: cell-based, human

Sequence	MHC II-related immuno-response [1]	patients with induction of an anti-survivin T-cell response upon vaccination ([2]; among the 16 reacting patients)	patients with pre-existing anti-Survivin T cells ([2]; among the 16 reacting patients)	patients who reacted to the peptide (immuno-response) ([2]; of 19 vaccinated patients, IFN-g ELISPOT, +/-ICS)	IFN-gamma production of peptide-specific CD4+ T-cell clones in response to peptide ([3]; clones from vaccinated cancer patients, FIG. 12)	natural presentation by dendritic cells ([3]; immature DCs incubated with recombinant survivin protein, FIG. 13)	cytokine expression of peptide-specific CD4+ T cells ([3]; vaccinated prostate cancer patients, FIG. 14)
TLGEFLKLDRERAKD [BIR-002a]	strong MHC II-related immuno-response	–	–	–	–	–	–
TLGEFLKLDRERAKN [BIR-002]	–	12	2	16	functional with respect to IFN-gamma production	naturally presented by dendritic cells	express beneficial cytokines IFN-gamma, TNF-alpha, IL-2
